Source: paper PMC11732012

Molecular target: EhVps35C (E. histolytica (endogenous in HM1:IMSS trophozoites))
Test: affinity purification with mass spectrometry; immunoprecipitates of trophozoite lysate with α-EhVps35 antibodies, digested, UPLC and Synapt G2-Si HDMSE; hits chosen by comparison with earlier proteomes of the actin cytoskeleton

binding: binds
B1: Profilin 1 (protein, UniProt P49230 1-130)
chain: MSWQSYVDSFLVGAGKGMGGAIIGLQGGVWAASANCTPSAQESVAIGTACASNIAGLQQTGVVIGGKKYMITRVDADEGTAMGKKGAEGISIYKTKQAVIIGYFSDASVSAGQNSDATYKCAKYLMDAGY

These are yes or no findings as the source states them, for the method shown. Binding seen in cells or lysates may run through a third protein. These calls come from enrichment with a bait or labelling near it, and not all partners need be listed.
